The source of these data is paper PMC6773851.

Amino acid sequences for entries named in this document (tags omitted). A change or cut given only in a name is not applied to a line headed by its entry.
UniProt P0A6X3: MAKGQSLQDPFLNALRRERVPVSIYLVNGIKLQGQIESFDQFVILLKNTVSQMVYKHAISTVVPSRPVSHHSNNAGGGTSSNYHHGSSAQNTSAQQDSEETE
UniProt P0A8T7: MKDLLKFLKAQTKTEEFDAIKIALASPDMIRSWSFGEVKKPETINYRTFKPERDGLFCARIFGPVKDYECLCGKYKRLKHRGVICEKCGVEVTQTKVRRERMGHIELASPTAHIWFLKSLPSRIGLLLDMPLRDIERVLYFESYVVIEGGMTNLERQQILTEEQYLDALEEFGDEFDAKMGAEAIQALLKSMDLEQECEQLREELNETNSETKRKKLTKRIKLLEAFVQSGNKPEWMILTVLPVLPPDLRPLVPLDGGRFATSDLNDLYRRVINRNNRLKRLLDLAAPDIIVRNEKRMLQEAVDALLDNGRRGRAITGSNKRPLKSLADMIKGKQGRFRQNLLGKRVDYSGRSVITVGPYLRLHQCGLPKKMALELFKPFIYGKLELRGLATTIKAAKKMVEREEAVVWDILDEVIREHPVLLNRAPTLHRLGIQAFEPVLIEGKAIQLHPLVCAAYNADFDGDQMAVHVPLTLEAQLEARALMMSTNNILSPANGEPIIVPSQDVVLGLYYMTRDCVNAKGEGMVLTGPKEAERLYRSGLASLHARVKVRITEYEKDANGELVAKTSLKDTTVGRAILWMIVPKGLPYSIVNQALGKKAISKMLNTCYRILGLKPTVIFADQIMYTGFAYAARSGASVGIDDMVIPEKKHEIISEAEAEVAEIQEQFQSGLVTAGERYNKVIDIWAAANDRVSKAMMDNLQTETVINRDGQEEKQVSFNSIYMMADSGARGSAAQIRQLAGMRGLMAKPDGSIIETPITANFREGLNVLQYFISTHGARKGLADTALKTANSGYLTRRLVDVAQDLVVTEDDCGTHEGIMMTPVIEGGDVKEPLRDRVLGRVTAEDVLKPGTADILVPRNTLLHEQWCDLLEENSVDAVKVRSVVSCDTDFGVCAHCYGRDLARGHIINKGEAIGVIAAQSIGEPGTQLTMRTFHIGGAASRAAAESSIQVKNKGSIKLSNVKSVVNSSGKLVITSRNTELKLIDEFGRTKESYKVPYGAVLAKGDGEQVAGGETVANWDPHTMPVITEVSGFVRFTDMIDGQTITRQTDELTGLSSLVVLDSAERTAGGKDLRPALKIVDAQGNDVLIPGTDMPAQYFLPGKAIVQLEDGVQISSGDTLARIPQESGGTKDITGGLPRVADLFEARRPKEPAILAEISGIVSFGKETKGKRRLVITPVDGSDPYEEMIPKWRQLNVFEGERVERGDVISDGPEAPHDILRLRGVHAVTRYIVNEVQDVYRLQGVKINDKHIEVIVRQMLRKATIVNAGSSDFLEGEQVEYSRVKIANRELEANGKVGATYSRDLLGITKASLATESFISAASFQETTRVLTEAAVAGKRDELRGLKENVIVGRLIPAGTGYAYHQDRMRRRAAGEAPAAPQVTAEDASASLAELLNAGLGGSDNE
UniProt P0A8V2: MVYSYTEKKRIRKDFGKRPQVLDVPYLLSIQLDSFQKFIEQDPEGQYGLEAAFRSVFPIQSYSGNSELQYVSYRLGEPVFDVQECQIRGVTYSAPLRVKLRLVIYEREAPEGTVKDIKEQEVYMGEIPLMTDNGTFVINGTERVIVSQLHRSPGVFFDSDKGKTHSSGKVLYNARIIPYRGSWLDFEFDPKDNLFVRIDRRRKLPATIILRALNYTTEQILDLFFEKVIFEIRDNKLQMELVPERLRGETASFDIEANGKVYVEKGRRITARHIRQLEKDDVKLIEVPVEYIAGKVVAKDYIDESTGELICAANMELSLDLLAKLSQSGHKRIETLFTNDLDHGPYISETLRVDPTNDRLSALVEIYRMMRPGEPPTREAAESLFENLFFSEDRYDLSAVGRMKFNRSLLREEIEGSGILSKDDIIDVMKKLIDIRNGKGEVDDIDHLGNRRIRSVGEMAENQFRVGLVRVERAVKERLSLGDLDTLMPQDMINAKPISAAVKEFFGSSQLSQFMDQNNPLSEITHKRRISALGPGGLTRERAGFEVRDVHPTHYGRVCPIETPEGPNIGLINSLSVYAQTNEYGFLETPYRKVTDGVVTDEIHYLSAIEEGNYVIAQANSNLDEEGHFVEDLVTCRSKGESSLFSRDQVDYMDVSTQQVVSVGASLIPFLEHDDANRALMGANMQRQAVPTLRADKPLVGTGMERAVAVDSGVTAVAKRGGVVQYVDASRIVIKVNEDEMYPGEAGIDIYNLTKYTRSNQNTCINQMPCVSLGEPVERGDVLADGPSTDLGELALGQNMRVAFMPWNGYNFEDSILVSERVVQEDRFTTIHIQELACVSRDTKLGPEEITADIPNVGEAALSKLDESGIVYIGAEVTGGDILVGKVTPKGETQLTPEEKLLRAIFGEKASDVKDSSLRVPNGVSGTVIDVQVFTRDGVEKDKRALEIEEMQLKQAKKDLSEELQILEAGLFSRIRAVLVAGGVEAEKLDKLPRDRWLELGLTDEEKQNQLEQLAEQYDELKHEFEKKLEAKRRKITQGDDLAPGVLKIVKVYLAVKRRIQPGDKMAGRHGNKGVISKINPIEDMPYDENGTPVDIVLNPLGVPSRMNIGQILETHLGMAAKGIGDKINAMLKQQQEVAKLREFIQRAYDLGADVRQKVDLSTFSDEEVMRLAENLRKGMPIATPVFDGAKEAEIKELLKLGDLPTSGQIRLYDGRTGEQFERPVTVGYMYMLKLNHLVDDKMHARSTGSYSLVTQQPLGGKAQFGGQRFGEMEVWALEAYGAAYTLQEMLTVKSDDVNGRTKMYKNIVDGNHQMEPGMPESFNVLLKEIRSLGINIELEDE
UniProt P0ABA4: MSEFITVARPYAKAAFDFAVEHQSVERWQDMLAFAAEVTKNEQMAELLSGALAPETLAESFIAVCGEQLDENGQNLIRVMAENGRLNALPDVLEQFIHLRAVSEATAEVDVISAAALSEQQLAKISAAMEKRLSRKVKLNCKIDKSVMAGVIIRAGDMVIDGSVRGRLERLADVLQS
UniProt P0ABA0: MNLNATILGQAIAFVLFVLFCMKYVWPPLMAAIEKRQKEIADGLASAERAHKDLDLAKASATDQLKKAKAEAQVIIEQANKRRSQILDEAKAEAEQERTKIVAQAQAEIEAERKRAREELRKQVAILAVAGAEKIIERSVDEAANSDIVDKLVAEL
UniProt P0ABB0: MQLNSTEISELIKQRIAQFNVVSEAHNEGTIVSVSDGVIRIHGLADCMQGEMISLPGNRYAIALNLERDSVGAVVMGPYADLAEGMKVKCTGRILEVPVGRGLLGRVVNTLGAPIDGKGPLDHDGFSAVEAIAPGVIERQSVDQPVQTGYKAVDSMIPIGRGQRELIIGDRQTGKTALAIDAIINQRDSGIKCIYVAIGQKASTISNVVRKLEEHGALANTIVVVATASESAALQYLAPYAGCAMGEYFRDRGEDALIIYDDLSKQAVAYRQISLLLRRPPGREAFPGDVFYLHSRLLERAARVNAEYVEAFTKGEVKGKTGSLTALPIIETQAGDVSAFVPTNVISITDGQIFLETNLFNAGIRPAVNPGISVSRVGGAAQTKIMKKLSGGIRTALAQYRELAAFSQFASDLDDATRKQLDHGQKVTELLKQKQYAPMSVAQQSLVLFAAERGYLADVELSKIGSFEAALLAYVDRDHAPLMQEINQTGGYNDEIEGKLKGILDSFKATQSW
UniProt P0ABB4: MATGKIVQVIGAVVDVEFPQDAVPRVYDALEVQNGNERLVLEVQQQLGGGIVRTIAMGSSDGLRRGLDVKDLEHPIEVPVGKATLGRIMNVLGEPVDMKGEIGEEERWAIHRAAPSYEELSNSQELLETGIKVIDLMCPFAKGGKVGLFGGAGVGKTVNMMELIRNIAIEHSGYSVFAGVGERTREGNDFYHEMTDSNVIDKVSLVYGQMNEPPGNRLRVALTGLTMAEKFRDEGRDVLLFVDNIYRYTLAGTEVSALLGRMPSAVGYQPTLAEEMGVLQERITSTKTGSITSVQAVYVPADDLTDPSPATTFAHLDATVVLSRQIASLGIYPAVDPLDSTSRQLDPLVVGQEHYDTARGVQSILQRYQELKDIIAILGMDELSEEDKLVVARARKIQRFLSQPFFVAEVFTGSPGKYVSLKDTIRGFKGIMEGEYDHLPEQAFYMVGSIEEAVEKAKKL
UniProt P0A6Y8: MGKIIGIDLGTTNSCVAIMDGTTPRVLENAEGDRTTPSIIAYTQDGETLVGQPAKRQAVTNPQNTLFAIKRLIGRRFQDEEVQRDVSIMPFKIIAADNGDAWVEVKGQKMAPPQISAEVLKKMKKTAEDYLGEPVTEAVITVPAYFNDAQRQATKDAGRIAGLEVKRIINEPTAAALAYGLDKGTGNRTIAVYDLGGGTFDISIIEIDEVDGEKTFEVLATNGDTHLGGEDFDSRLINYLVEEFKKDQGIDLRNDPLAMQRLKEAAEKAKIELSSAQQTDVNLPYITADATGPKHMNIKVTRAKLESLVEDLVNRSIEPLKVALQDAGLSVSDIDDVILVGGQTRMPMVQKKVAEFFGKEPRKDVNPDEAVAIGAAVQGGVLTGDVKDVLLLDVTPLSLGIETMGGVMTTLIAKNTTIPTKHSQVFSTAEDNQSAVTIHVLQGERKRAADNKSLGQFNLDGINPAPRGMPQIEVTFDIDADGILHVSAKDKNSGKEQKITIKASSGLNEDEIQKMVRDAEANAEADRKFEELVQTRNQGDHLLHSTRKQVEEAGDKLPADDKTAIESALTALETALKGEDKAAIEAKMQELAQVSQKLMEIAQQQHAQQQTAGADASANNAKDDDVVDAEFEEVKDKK
UniProt P0AES4: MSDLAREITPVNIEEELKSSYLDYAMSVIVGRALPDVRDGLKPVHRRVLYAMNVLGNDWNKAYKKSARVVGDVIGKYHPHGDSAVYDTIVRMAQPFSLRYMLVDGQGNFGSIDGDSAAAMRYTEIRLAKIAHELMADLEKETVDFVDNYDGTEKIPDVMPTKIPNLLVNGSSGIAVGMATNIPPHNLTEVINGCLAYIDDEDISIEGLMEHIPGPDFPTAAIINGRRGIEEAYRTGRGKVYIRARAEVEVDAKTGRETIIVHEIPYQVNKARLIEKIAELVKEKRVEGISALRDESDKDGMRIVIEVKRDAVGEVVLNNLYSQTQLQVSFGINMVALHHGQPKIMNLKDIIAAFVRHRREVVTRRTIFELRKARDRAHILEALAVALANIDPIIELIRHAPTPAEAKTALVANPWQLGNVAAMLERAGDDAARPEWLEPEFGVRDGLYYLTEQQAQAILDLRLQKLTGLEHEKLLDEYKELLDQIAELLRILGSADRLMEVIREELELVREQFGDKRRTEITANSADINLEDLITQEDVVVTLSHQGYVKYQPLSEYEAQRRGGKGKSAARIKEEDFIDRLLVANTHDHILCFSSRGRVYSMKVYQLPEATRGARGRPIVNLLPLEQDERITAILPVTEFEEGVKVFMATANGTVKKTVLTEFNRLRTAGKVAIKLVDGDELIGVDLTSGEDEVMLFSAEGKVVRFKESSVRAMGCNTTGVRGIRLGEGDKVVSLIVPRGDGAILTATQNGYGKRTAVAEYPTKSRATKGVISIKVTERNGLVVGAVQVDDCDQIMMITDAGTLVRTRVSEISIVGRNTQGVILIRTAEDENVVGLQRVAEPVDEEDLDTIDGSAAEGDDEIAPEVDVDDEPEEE
UniProt P0A6P9: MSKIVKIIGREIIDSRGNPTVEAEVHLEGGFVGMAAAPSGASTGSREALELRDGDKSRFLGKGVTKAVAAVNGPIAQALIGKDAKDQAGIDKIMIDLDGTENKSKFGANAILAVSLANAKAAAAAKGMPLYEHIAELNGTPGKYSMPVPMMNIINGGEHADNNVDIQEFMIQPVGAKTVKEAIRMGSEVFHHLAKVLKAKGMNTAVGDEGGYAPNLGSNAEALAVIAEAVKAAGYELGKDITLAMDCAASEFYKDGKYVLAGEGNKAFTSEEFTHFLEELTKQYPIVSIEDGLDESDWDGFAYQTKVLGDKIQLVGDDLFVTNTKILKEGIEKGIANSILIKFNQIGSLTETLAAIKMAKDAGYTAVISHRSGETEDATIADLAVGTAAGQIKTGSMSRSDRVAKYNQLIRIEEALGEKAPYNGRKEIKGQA
UniProt P0A7Z4: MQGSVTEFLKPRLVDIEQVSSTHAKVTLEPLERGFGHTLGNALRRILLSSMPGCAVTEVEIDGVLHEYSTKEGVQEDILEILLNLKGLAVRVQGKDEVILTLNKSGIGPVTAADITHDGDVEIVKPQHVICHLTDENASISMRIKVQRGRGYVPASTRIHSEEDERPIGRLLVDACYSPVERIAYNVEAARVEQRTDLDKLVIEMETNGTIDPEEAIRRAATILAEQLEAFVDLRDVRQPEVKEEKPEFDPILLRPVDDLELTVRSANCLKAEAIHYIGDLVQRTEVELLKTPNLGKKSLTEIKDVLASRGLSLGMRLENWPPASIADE

The target of assay [1] is HfqH6 (His6-tagged Hfq expressed from pHfqH6) (E. coli) (UniProt P0A6X3). Nature of the assay: cross-linking; in vivo, 0.25 mM DSP in PBS, 1 h at 37 °C, late exponential phase; HfqH6 complexes enriched on Ni-Agarose; with or without 50 mM DTT; SDS-PAGE, 24 gel slices analysed by mass spectrometry; no RNase A treatment.
The target in assay [2] is RNA polymerase β′ subunit, C-terminally His-tagged (from the purified polymerase, resolved on the gel) (E. coli) (UniProt P0A8T7). The experiment in a line: far-Western, overlay or dot blot; purified proteins on 12.5% SDS-PAGE, blotted to nitrocellulose, denatured with guanidine-HCl and renatured, incubated overnight at 4 °C with 20 µg purified Hfq in 20 ml protein-binding buffer; bound Hfq detected with an anti-Hfq polyclonal antibody; both purified.

The target in assay [3] is RNA polymerase β subunit (from the purified polymerase, resolved on the gel) (E. coli) (UniProt P0A8V2). The assay is described as above.
Assay [4] deals with T1, Poly(A)polymerase, PAP (purified) (E. coli) (UniProt P0ABF1).
T1 sequence: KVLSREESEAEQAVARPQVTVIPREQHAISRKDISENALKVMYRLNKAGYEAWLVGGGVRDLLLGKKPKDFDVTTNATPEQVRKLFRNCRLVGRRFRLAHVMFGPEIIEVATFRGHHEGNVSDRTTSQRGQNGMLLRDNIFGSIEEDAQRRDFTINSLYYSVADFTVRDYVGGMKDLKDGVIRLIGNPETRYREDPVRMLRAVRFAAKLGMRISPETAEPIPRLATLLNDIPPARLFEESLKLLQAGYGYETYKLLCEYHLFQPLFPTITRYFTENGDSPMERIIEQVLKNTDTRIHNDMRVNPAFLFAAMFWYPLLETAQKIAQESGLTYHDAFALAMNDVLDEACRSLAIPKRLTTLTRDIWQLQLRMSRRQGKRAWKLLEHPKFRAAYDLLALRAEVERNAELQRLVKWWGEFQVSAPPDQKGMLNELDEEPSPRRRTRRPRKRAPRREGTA
The assay is described as above.

In assay [5] the target is T1, Poly(A)polymerase, PAP (purified) (E. coli). Nature of the assay: condition: only the 53.8 kDa monomeric band of poly(A) polymerase on the blot; far-Western, overlay or dot blot; purified proteins on 12.5% SDS-PAGE, blotted to nitrocellulose, denatured with guanidine-HCl and renatured, incubated overnight at 4 °C with 20 µg purified Hfq in 20 ml protein-binding buffer; bound Hfq detected with an anti-Hfq polyclonal antibody; both purified.

The target of assay [6] is Ec-HfqHis6 (purified) (E. coli) (UniProt P0A6X3). The experiment in a line: MST; S1 and RNA polymerase with Hfq, with and without total RNA; data not shown; both purified.

These are yes or no findings as the source states them, for the method shown. For some of these results: In cells and extracts the contact can be indirect. Some entries that bind do so weakly or less than the wild type.

For the substance “ATP synthase subunit ATPD (from UniProt P0ABA4 1-177)”, in assay [1], the binding result is “binds”. For “ATP synthase subunit ATPF (from UniProt P0ABA0 1-156)”, the binding entry in assay [1] is “binds”. Still for that read-out and setting: the same measure for “ATP synthase subunit alpha (from UniProt P0ABB0 1-513)”: “binds”; for “ATP synthase subunit beta (from UniProt P0ABB4 1-460)”: “binds”.

On to “Chaperone protein dnaK (from UniProt P0A6Y8 1-638)”, for which the binding entry in assay [1] was “binds”.

As to “DNA gyrase subunit A (from UniProt P0AES4 1-875)”, the binding result in assay [1] was “binds”. As for “Ec-HfqHis6 (purified) (from UniProt P0A6X3 1-102)”, the binding result in assay [2] is reported as “binds weakly”; in assay [3], “binds weakly”; in assay [4], “binds weakly”; in assay [5] it was “no binding”. Consider “Enolase (Eno) (from UniProt P0A6P9 1-432)”, for which the binding entry in assay [1] was “binds”. On to “RNA polymerase (α, β, β′-His6, ω), purified (from UniProt P0A7Z4 1-329; P0A8V2 1-1342; P0A8T7 1-1407; P0A800 1-91) (complex)”, for which the binding result in assay [6] is recorded as “binds weakly”. RecA (from UniProt P0A7G6 1-353): the binding result in assay [1] is “binds”.
